The values that follow come from publication PMC4303762, “Identification of PLXDC1 and PLXDC2 as the transmembrane receptors for the multifunctional factor PEDF” (eLife, 2014).

Experiment [1] concerns the target extracellular domain (ECD) deleted PLXDC1 (human). In words: binding of a biotinylated ligand to transfected cells, detected with streptavidin-alkaline phosphatase; biotinylated PEDF (20 nM) added to transfected or control HEK293 cells on a fibronectin-coated dish in HBSS, 10 mM HEPES pH 7.5, 2 mg/ml BSA, room temperature, 1 hour; washed, fixed, streptavidin-AP, NBT/BCIP; only the binder purified.

The target in experiment [2] is extracellular domain (ECD) deleted PLXDC2 (human). The description is as above.
Experiment [3] has as its target intracellular domain deleted PLXDC2 (human). The experiment is described as above.
Experiment [4] addresses Rim-tagged PLXDC1 with domain D deleted (human). In words: co-IP; cotransfected cells lysed in 1% Triton X-100 in HBSS; Rim-tagged protein purified on anti-Rim antibody beads, 4 hr at 4°C; eluted at pH 2.3; copurified receptors detected by anti-HA or by antibody specific to PLXDC1 or PLXDC2.

No constants are given. Whether binding was seen depends on the method and setting. For some of these results: A result given as binding can be weak or reduced; the word gives no strength. For some of these results: In cells and extracts the contact can be indirect. For some of these results: Tags and fused reporters may be left off the sequences shown.

B1: biotinylated PEDF (ligand, UniProt P36955 20-418)
chain: QNPASPPEEGSPDPDSTGALVEEEDPFFKVPVNKLAAAVSNFGYDLYRVRSSTSPTTNVLLSPLSVATALSALSLGAEQRTESIIHRALYYDLISSPDIHGTYKELLDTVTAPQKNLKSASRIVFEKKLRIKSSFVAPLEKSYGTRPRVLTGNPRLDLQEINNWVQAQMKGKLARSTKEIPDEISILLLGVAHFKGQWVTKFDSRKTSLEDFYLDEERTVRVPMMSDPKAVLRYGLDSDLSCKIAQLPLTGSMSIIFFLPLKVTQNLTLIEESLTSEFIHDIDRELKTVQAVLTVPKLKLSYEGEVTKSLQEMKLQSLFDSPDFSKITGKPIKLTQVEHRAGFEWNEDGAGTTPSPGLQPAHLTFPLDYHLNQPFIFVLRDTDTGALLFIGKILDPRGP
modifications: biotin (sulfo-NHS-SS-biotin; sites not stated)
Regarding B1, the binding entry is recorded as “no binding (tested: 20 nM)” in experiment [1], “no binding (tested: 20 nM)” in experiment [2] and “binds” in experiment [3].

B2: PLXDC1 in membranes of transfected HEK293 cells (copper phenanthroline crosslinking) (receptor, human, UniProt Q8IUK5 19-500, looked up)
chain: LSPQPGAGHDEGPGSGWAAKGTVRGWNRRARESPGHVSEPDRTQLSQDLGGGTLAMDTLPDNRTRVVEDNHSYYVSRLYGPSEPHSRELWVDVAEANRSQVKIHTILSNTHRQASRVVLSFDFPFYGHPLRQITIATGGFIFMGDVIHRMLTATQYVAPLMANFNPGYSDNSTVVYFDNGTVFVVQWDHVYLQGWEDKGSFTFQAALHHDGRIVFAYKEIPMSVPEISSSQHPVKTGLSDAFMILNPSPDVPESRRRSIFEYHRIELDPSKVTSMSAVEFTPLPTCLQHRSCDACMSSDLTFNCSWCHVLQRCSSGFDRYRQEWMDYGCAQEAEGRMCEDFQDEDHDSASPDTSFSPYDGDLTTTSSSLFIDSLTTEDDTKLNPYAGGDGLQNNLSPKTKGTPVHLGTIVGIVLAVLLVAAIILAGIYINGHPTSNAALFFIERRPHHWPAMKFRSHPDHSTYAEVEPSGHEKEGFMEAEQC
notes: human PLXDC1 with its cytoplasmic tail ending in the conserved cysteine; Detected by a Western blot for the receptor; also called the receptor; source: HEK293, transfected, in membrane preparation
In the case of B2, the binding result in experiment [4] was “no binding”.
